Experimental data reported in patent publication US20160003839A1.
Results are given in words; binding and its absence hold for the method and conditions named. For part of these data: Binding can be weak; no strength is given.

How the values were obtained:
murine laminin (murine) [1] = assay: direct ELISA on murine laminin
Fetuin = assay: NGC microarray, intensity
[2] = target: Gal-α-(1→3)-Gal-β-(1→4)-GlcNAc-HSA; assay: NGC microarray, intensity; probe label GGGNHSA
murine laminin (murine) [3] = assay: competitive ELISA with scFv A4, heat-treated laminin free in solution
[4] = target: Gal-α-(1→3)-Gal-β-(1→4)-GlcNAc-HSA; assay: direct ELISA, purified scFv on coated NGC
[5] = target: Gal-α-(1→3)-Gal-β-(1→4)-GlcNAc-HSA; assay: competitive ELISA with scFv A4, trisaccharide NGC free in solution

binding (murine laminin (murine) [1]): binds
binding (Fetuin): no binding
binding [2]: binds
binding (murine laminin (murine) [3]): binds
binding [4]: binds
binding [5]: binds
B1: scFv-A4 (scFv)
scFv: QAALTQPSSVSTNPGGTVKITCSGGNGNYGWYQQKSPGSAPVTVIYSNNKRPSDIPSRFSGSKSGSTATLTITGVQVDDEAVYFCGAYDNTYVGVFGAGTTLTVLGQSSRSSSGGGSSGGGGSAVTLDESGGGLQTPGGGLSLVCKASGFTFSSYSMQWVRQTPGKGLEFVAGIGYSDSYTYFGPAVKGRATISRDNGQNTVRLQLNNLRAEDTATYYCARSADTIYGCTHPWCSADNIDAWGHGTEVIVSSTSGQAGQ
